Data as given in the supplement of paper PMC10849652.
Some of the results follow.

The chains behind the UniProt entries cited, without tags or fusion partners. Where a name states a change or a piece, a line headed by the entry shows the natural chain unless it says otherwise.
UniProt Q9Y6I9: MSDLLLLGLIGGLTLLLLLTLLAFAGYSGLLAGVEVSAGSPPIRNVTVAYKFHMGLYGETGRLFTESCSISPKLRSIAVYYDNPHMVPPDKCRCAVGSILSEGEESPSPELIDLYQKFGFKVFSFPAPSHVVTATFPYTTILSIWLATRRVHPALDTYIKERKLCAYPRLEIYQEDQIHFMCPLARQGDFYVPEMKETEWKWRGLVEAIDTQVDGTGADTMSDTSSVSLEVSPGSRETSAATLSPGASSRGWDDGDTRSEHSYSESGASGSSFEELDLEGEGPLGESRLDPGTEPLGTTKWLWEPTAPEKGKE
UniProt P52888, whole entry, looked up: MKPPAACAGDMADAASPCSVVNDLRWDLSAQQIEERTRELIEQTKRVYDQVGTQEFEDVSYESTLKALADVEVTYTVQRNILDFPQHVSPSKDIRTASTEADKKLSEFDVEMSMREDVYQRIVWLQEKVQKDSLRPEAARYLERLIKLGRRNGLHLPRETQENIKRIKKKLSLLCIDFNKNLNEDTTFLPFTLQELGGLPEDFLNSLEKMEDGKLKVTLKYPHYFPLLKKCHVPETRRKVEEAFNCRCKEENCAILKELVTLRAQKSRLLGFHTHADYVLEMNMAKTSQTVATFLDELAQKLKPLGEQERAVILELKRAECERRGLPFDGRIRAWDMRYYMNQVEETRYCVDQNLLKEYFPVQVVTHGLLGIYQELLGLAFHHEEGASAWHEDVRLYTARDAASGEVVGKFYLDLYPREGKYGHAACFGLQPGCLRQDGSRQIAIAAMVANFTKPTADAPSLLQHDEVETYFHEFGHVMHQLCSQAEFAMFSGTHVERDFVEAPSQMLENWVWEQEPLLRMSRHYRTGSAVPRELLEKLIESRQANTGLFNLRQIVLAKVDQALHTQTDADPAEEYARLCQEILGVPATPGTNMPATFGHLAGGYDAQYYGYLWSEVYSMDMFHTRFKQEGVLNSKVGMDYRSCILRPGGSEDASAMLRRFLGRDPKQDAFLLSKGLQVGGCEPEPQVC
UniProt Q8WUH2: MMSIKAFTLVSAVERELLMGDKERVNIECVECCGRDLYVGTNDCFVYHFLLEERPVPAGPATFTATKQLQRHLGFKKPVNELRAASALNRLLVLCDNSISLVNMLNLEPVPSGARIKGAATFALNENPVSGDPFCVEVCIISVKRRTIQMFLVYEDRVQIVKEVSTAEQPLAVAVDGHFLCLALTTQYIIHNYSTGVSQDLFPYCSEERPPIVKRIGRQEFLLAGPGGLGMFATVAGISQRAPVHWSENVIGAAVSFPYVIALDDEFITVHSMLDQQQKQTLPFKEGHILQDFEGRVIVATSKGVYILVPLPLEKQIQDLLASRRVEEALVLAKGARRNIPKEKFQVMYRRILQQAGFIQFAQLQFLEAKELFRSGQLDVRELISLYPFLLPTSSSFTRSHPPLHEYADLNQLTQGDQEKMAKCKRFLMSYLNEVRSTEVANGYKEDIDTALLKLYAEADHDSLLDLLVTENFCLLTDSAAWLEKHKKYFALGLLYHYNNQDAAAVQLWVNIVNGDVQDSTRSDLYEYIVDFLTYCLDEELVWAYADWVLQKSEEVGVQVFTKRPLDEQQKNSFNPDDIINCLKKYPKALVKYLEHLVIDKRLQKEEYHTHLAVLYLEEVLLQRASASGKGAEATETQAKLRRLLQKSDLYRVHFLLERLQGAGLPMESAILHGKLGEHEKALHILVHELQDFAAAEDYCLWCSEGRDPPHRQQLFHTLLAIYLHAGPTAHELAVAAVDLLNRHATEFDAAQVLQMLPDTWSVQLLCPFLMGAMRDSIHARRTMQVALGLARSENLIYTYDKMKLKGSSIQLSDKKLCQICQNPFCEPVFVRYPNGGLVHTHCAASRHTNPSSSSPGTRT
UniProt Q9Y5J7: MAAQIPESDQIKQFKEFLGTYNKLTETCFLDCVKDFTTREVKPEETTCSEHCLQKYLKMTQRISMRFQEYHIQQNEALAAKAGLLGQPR
UniProt P15923: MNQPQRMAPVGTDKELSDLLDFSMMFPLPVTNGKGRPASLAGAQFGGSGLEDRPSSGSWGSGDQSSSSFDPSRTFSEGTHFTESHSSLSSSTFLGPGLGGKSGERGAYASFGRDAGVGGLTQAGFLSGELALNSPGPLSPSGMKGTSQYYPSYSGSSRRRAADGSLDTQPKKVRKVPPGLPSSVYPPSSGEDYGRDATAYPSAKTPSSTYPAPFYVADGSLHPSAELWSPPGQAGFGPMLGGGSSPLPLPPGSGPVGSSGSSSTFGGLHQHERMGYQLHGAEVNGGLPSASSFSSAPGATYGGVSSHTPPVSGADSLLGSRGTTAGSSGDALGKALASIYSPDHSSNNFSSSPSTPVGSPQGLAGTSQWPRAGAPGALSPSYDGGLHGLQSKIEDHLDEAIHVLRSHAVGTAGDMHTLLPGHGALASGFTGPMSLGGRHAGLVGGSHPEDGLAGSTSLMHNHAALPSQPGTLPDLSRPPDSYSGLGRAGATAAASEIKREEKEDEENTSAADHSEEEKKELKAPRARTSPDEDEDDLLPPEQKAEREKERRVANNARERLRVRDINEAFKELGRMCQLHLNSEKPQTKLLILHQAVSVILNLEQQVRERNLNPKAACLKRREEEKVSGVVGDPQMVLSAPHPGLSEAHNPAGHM
UniProt Q66K14, whole entry, looked up: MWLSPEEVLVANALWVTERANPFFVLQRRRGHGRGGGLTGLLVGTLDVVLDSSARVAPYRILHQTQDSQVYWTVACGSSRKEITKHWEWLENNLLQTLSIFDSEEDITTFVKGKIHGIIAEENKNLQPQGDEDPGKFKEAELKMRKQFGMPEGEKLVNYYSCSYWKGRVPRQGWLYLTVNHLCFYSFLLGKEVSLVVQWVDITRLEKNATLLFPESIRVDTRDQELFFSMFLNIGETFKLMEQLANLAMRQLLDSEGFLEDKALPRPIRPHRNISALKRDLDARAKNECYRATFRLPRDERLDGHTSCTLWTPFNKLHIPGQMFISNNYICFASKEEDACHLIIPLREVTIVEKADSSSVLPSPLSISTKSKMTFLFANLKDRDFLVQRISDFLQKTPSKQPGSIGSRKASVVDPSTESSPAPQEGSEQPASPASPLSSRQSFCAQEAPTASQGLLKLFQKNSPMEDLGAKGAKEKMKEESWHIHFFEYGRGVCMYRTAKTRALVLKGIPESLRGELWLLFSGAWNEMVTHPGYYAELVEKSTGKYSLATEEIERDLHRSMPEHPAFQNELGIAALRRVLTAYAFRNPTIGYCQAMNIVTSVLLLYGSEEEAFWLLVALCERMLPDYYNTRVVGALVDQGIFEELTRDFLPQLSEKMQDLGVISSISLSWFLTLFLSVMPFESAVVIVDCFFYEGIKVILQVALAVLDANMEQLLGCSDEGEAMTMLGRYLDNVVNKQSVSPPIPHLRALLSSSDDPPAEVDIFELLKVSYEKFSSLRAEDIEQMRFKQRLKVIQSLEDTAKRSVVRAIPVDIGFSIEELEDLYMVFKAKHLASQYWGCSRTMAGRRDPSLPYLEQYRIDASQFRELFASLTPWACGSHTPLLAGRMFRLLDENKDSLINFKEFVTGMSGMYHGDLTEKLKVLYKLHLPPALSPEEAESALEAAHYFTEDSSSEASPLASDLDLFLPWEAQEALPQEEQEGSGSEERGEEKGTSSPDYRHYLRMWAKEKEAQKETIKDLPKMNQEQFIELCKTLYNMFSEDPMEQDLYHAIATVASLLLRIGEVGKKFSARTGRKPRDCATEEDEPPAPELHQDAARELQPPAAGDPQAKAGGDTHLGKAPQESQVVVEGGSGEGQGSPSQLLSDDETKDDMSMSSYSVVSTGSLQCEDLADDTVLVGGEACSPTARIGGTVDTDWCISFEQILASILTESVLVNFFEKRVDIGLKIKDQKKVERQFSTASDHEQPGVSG
UniProt Q3LXA3: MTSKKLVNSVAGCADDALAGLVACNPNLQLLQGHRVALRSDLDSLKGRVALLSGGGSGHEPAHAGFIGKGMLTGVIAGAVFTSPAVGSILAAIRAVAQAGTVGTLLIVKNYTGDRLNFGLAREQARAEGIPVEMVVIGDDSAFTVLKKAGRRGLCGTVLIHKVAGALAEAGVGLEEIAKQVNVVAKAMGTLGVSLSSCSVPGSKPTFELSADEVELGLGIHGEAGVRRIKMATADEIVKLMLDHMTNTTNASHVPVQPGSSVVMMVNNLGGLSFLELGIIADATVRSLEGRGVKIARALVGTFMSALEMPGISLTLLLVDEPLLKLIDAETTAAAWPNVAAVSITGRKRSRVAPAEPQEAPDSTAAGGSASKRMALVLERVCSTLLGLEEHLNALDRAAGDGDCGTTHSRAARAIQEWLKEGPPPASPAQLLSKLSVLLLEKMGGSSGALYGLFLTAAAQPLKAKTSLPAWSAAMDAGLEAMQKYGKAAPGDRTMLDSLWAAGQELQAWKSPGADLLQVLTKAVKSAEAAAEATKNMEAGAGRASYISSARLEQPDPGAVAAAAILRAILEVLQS
UniProt Q9H5Q4: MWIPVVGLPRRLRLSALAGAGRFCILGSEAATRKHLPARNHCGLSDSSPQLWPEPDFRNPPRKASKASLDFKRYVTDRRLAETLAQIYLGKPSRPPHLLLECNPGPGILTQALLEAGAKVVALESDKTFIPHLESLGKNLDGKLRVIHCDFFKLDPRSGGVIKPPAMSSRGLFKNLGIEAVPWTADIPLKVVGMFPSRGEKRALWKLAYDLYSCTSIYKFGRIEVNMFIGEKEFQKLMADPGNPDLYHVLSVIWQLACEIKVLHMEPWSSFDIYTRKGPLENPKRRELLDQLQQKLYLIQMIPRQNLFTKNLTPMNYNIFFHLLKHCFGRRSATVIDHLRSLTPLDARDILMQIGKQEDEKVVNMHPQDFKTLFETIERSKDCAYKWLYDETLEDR
UniProt Q99595: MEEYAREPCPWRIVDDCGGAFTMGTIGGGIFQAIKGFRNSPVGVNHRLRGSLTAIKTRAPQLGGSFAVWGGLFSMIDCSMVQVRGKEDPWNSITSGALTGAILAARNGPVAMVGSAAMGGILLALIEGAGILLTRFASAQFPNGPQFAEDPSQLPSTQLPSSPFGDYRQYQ
UniProt Q9NWX6: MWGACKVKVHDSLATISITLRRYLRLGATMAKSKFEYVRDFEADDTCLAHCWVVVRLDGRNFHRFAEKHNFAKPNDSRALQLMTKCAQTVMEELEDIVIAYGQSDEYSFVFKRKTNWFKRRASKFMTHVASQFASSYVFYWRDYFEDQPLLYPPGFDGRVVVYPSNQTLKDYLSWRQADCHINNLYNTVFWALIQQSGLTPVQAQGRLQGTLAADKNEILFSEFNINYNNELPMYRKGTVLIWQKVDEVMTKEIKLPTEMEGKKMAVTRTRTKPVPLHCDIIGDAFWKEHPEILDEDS
UniProt O60343: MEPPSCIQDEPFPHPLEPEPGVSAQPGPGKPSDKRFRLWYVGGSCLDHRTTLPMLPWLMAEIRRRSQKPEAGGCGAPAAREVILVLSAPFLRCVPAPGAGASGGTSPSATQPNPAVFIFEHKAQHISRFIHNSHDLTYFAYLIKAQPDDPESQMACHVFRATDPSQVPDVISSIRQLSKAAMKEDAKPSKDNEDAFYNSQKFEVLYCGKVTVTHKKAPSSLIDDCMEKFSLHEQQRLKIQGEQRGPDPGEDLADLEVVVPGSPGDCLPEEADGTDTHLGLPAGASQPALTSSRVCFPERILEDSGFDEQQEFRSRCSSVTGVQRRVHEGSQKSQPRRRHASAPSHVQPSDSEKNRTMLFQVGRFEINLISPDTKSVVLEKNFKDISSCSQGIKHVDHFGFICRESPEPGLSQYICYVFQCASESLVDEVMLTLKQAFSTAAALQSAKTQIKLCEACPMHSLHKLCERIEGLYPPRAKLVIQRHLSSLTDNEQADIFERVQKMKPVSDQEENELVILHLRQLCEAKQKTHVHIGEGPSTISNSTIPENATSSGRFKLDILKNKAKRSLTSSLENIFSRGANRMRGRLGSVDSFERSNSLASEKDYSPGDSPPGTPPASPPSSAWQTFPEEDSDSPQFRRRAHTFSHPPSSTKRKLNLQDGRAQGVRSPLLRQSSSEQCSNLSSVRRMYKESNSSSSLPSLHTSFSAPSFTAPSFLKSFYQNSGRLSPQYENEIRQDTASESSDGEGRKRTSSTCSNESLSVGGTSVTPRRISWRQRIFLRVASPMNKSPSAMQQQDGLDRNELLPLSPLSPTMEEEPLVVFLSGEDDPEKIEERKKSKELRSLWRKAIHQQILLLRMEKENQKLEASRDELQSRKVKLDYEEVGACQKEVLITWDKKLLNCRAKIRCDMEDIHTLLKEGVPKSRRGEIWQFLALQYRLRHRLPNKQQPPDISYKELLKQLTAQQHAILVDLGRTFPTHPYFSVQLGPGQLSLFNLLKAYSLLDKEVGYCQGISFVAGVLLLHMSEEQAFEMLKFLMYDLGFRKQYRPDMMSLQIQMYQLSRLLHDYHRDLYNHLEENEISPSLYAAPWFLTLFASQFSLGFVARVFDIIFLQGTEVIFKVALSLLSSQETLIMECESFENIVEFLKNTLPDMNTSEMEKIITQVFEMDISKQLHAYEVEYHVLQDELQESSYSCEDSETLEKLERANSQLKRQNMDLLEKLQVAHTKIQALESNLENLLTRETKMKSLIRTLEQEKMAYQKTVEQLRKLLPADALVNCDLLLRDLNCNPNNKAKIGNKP

Compound: COc1cc(Nc2ncc3c(n2)-c2ccc(Cl)cc2C(c2c(F)cccc2OC)=NC3)ccc1C(=O)O [alisertib]
Experiment: log2 fold change, soluble protein after heating vs DMSO (PISA); higher = thermal stabilisation; K562 cells, 10 uM, 30 min; active = over 0.2 and 3.5 SD of the protein, either way, in both replicates (recomputed)
Procedure, shortened: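 Aliquots of K562 cells (2×10^6 cells/mL) treated with 10 μM compound for 30 min were heated for 3 min over 48°C-58°C. After pooling and extraction in PBS with 0.5% NP-40 at 4°C, soluble protein from a 21,000xg, 90 min spin was quantified by TMTpro 16plex LC-MS/MS with channel sums equalised. Thermal stability is expressed against control samples, from duplicates, as a log2 fold change.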

log2 fold change, inactive:
TEX264 (UniProt Q9Y6I9) -0.042
THOP1 (UniProt P52888) -0.032
TGFBRAP1 (UniProt Q8WUH2) 0.046
TIMM9 (UniProt Q9Y5J7) -0.077
TCF3 (UniProt P15923) -0.058
TIMM10 (UniProt P62072) 0.01
TFR2 (UniProt Q9UP52) -0.04
TBL1XR1 (UniProt Q9BZK7) 0.012
TBC1D9B (UniProt Q66K14) 0.03
TKFC (UniProt Q3LXA3) -0.037
TGFBR1 isoform 2 (UniProt P36897) -0.05
TCOF1 isoform 4 (UniProt Q13428) -0.061
TIMM8A (UniProt O60220) -0.074
THUMPD2 (UniProt Q9BTF0) -0.024
TFB2M (UniProt Q9H5Q4) 0.011
TIMM17A (UniProt Q99595) -0.008
TFRC (UniProt P02786) -0.05
THG1L (UniProt Q9NWX6) -0.012
TBCC (UniProt Q15814) 0.004
TES (UniProt Q9UGI8) -0.039
TELO2 (UniProt Q9Y4R8) -0.16
TBCA (UniProt O75347) -0.045
TBC1D4 (UniProt O60343) -0.005

2 records picked at random from the list so far:
log2 fold change, inactive:
TFRC (UniProt P02786) -0.05
TBCA (UniProt O75347) -0.045
